Experimental findings from PubChem BioAssay AID493027 (The Scripps Research Institute Molecular Screening Center, 2011) are described below.

Amino acid sequences for entries named in this document (tags omitted). A change or cut given only in a name is not applied to a line headed by its entry.
UniProt O60240: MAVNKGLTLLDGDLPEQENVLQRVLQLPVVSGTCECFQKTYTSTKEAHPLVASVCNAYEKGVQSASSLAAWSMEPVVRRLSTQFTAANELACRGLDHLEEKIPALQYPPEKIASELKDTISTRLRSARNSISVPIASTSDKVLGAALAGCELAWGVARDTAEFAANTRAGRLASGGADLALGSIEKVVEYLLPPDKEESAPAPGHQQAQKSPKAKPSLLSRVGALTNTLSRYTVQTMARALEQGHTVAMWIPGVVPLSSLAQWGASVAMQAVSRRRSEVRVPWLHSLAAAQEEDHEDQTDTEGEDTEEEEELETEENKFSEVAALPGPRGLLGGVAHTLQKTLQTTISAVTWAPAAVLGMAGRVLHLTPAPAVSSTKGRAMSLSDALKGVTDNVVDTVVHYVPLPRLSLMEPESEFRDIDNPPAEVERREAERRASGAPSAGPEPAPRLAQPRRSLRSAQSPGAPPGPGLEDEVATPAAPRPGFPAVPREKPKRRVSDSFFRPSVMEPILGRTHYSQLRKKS
UniProt Q8WTS1: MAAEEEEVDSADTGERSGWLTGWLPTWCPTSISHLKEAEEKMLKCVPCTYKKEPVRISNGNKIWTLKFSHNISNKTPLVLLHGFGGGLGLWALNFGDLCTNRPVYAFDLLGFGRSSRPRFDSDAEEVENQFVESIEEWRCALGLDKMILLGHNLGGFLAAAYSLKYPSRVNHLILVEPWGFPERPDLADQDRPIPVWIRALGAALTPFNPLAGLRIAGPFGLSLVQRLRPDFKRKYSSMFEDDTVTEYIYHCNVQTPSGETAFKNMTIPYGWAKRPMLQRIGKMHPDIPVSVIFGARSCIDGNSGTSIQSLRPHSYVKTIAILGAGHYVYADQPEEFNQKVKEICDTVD

Where “and” joins values, the source holds several entries; their conditions need not be identical. Equal entries are not always repeated. Hit rate of the full screen: of about 2,000 compounds, about 45 (2%) were called active.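 The calls were made as follows: active = inhibition above the screen-wide mean inhibition plus 3 SD (cut at about 44% in these data); inactive = the rest.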 This is one part of the list.

As usually defined, the inhibition is the relative decrease from the control value, in per cent.

In this assay the target is Perilipin-1 (Homo sapiens) + 1-acylglycerol-3-phosphate O-acyltransferase ABHD5 (Homo sapiens) (UniProt O60240+Q8WTS1). The experiment in a line: ABHD5-PLIN1 interaction inhibitors, pilot screen, cell lysate, split luciferase complementation, luminescence, NIH validation set (AID 493027).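 Also: 0% = DMSO wells with the 100% control not disclosed.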 The settings on record: split G. princeps luciferase complementation, 4 h; at 7.9 µM, active compounds read high.
On to `COCCCNc1nc2c([nH]1)c(=O)[nH]c(=O)n2C`, for which the inhibition is inactive: -10.5%.

On to `CCN(CC)C(=O)c1sc(NC(=O)c2c(OC)cccc2OC)c(C#N)c1C`, for which the inhibition was inactive: -10.4%.

Turning to `O=C(O)/C=C/c1cnc[nH]1`, the inhibition was inactive: -7.51%.

With `NCc1ccccc1COc1ccccc1`, the inhibition was inactive: 0.98%.

On to `CC1COc2c(N3CCN(C)CC3)c(F)cc3c(=O)c(C(=O)O)cn1c23` (stereo not given), for which the inhibition was inactive: -8.51%.

As for `C[C@H]1O[C@H]1P(=O)(O)O`, the inhibition was inactive: 2.43%.

For the compound `COc1ccc2[nH]cc(CCNC(=O)C3CCCNC3=O)c2c1` (stereo not given), the inhibition was inactive: -10.1%.

As to `CCOC(=O)c1ccc(N2C(=O)C(CC(N)=O)N(CCc3ccc(OC)c(OC)c3)C2=S)cc1` (stereo not given), the inhibition was inactive: 6.04%.

As for `CN(C)[C@@H]1C(=O)C(C(N)=O)=C(O)[C@@]2(O)C(=O)C3=C(O)c4c(O)ccc(Cl)c4[C@@H](O)[C@H]3C[C@@H]12`, the inhibition is inactive: -5.77%.

Turning to `CC(C)(C)C(=O)NC(=S)NNC(=O)c1ccncc1`, the inhibition is inactive: -14%.

For the compound `OCCN(CCO)c1ccc2ccccc2c1`, the inhibition was inactive: -12.1%.

Take `CN1C(=O)C(O)(CC(=O)/C=C/C=C/c2ccccc2)c2ccccc21` (stereo not given): the inhibition was inactive: 5.93%.

For the compound `Cn1cc(C2N3CC4(C)CN2CC(C)(C3)C4=O)c2ccccc21` (stereo not given), the inhibition was inactive: -7.09%.

Take `CC(=O)OCC[N+](C)(C)C`: the inhibition was inactive: -10.6% and inactive: -5.65%.

For `Cn1c(=O)c(C(=O)NCCO)c(O)c2ccccc21`, the inhibition was inactive: -5.11%.

As for `CC[n+]1ccc2cc(OC)c(OC)cc2c1Cc1ccc(OC)c(OC)c1`, the inhibition is inactive: -12.6%.

Turning to `O=C(/C=C/c1ccc2c(c1)OCO2)c1ccccn1`, the inhibition was active: 51.3%.

In the case of `COc1cc(/C=C/C(=O)CC(=O)/C=C/c2ccc(O)c(OC)c2)ccc1O`, the inhibition was active: 50.4%.

With `CC1(C)C(C=C(Cl)Cl)C1C(=O)N1CCN(Cc2ccccc2)CC1` (stereo not given), the inhibition was inactive: -10.6%.

Consider `CNC(=O)Oc1ccc2c(c1)[C@]1(C)CCN(C)[C@@H]1N2C`, for which the inhibition is inactive: -15.5%.

Take `CC(C)CN1CCN(Cc2cccn2-c2ccccn2)CC1CCO` (stereo not given): the inhibition is inactive: -3.48%.

`CCC(=O)c1ccc(OCc2ccc(C(=O)OC)cc2)cc1`: the inhibition was inactive: -4.79%.

As for `CCOC(=O)N1c2ccccc2C=CC1OCC` (stereo not given), the inhibition is inactive: 1.73%.

As to `COc1cccc(OCC(O)CO)c1` (stereo not given), the inhibition is inactive: -6.76%.

`NC(CO)C(=O)NNCc1ccc(O)c(O)c1O` (stereo not given): the inhibition is inactive: -7.59%.

In the case of `CN(C)CCCN1c2ccccc2CCc2ccccc21`, the inhibition was inactive: -4.72%.

Regarding `COc1ccc2cc(C(=O)OC(C)C)sc(=O)c2c1OC`, the inhibition is inactive: 3.53%.

Consider `CC12CN3CC(C)(CN(C1)C3c1ccc(Cl)cc1Cl)C2=O` (stereo not given), for which the inhibition is inactive: -6.26%.

Regarding `Cc1cc(O)c(C(=O)Cc2csc(C)n2)c(O)c1`, the inhibition was inactive: -0.56%.

For the compound `O=c1[nH]cnc2[nH]ncc12`, the inhibition is inactive: 3.56%.

In the case of `CN(C)C(=O)Oc1cccc([N+](C)(C)C)c1`, the inhibition was inactive: -7% and inactive: -2.24%.

Regarding `CN1CCC(OC(c2ccccc2)c2ccccc2)CC1`, the inhibition was inactive: -7.52%.

Regarding `CCOc1ncnc2c1[nH]c1ccccc12`, the inhibition is inactive: -0.24%.

With `C[n+]1ccccc1/C=N/O`, the inhibition was inactive: -15% and inactive: -9.06%.

With `COc1ccc(CN2CCCCC2C(=O)Nc2ccc(OC)c(OCC(C)C)c2)cc1OC` (stereo not given), the inhibition is inactive: -7.15%.

As for `Cc1cccc(Nc2ccccc2C(=O)O)c1C`, the inhibition is inactive: -6.43%.

For `CCC(C)n1ncn(-c2ccc(N3CCN(c4ccc(OCC5COC(Cn6cncn6)(c6ccc(Cl)cc6Cl)O5)cc4)CC3)cc2)c1=O` (stereo not given), the inhibition is inactive: 6.51%.

As to `CNCCCN1c2ccccc2CCc2ccccc21`, the inhibition was inactive: -10.1%.

Regarding `O=C1CC(c2ccc(F)cc2)Cc2nc(NCC3CCCO3)ncc21` (stereo not given), the inhibition is inactive: -8.75%.

As to `COc1cc(OC)c(-c2nc3cnccc3n2C)cc1OC`, the inhibition is inactive: -12.2%.

With `CCCCCCCC(=O)OCC(=O)[C@@]1(O)CC[C@H]2[C@@H]3CCC4=CC(=O)CC[C@]4(C)[C@H]3[C@@H](O)C[C@@]21C`, the inhibition is inactive: -5.24%.

In the case of `CC1(C)S[C@@H]2[C@H](NC(=O)Cc3ccccc3)C(=O)N2[C@H]1C(=O)O`, the inhibition was inactive: -1.81%.

Consider `Cc1cc(=O)c2c(O)c(O)ccc2o1`, for which the inhibition was inactive: -5.04%.

As to `COc1ccccc1OCC(=O)O`, the inhibition is inactive: -2.36%.

With `CCCCC/C=C\C[C@H](O)/C=C/c1cccc(C[C@H](O)CCCCO)n1`, the inhibition is active: 57.6%.

As for `Cc1ccc2c(c1)C(O)(CC(=O)/C=C/C=C/c1ccccc1)C(=O)N2` (stereo not given), the inhibition is inactive: 16.4%.

As to `COc1ccc2c(c1)[nH]c1c(=O)n(Cc3ccccn3)cnc12`, the inhibition is inactive: -5.21%.

Regarding `Cn1c(=O)[nH]c(=O)c2c1nc(NCc1ccco1)n2CCCc1ccccc1`, the inhibition was inactive: -8.69%.

Turning to `CC1(C)CC(=O)c2cnc(NC(=O)C3CCCC3)nc2C1`, the inhibition is inactive: -3.78%.

Regarding `COc1ccc(-n2cc(CNCc3cccnc3)c(-c3cccc(F)c3)n2)cc1`, the inhibition was inactive: -5.39%.

`Cn1c(=O)c2c(ncn2CCO)n(C)c1=O`: the inhibition is inactive: -4.77%.

For `C#CCN(C)CCCOc1ccc(Cl)cc1Cl`, the inhibition was inactive: -6.41%.

As to `Cc1c(NC(=O)c2cccs2)cccc1[N+](=O)[O-]`, the inhibition is inactive: -7.26%.

As for `Cc1nc2cc3ccccc3cc2c(=O)[nH]1`, the inhibition was inactive: -3.56%.

`COc1cccc(CN2C(=O)N(C(C)C)C(N(O)C(=O)NC(C)C)C2(C)C)c1OC` (stereo not given): the inhibition was inactive: -1.66%.

For `COc1ccc(C2C3=C(CC(C)(C)CC3=O)N(C)C3=C2C(=O)CC(C)(C)C3)cc1`, the inhibition was inactive: -1.89%.

Regarding `O=C(c1ccc(Cl)cc1)C1CCCN(Cc2ccc(Oc3ncccn3)cc2)C1` (stereo not given), the inhibition is inactive: 3.67%.

Take `O=C(OCCNC(=O)c1ccc2ccccc2n1)c1ccc(F)cc1`: the inhibition is inactive: 9.4%.

Regarding `CC12CC(c3ccccc3O1)C(C(=O)N1CCOCC1)C(=O)N2` (stereo not given), the inhibition was inactive: -10.7%.

As for `CCC(C)NCCOCCOc1ccc(Cl)cc1Br` (stereo not given), the inhibition was inactive: -2.78%.

Regarding `COc1cc(NC(=S)NN2CCN(C)CC2)cc(OC)c1OC`, the inhibition was inactive: -10%.

Take `CC1=NN(C(=O)c2ccc(Br)cc2)C(O)(c2ccccc2)C1` (stereo not given): the inhibition was inactive: 6.64%.

With `CN1[C@@H](CC(=O)c2ccccc2)CCC[C@H]1C[C@H](O)c1ccccc1`, the inhibition is inactive: 0.86%.

In the case of `c1ccc2[nH]c(-c3cscn3)nc2c1`, the inhibition is inactive: -13.2%.

For the compound `COc1ccc2c(c1)[N+](C)(C)C(C)(C)C=C2C`, the inhibition is inactive: -6.86%.

Turning to `C#CCN1C(=O)C(O)(c2c(C)[nH]c3ccccc23)c2ccccc21` (stereo not given), the inhibition is inactive: -1.35%.

Regarding `COc1ccccc1C(O)c1nccn1C` (stereo not given), the inhibition is inactive: -3.47%.

Consider `CCOC(=O)C1=C[C@]2(CC)CCCN3CCc4c(n1c1ccccc41)[C@@H]32`, for which the inhibition was inactive: -9.26%.

On to `COCCn1c(/C=C/c2ccccc2)nc2ccccc21`, for which the inhibition was inactive: 4.15%.

As to `CC1CNCCN1S(=O)(=O)c1cccc2cnccc12` (stereo not given), the inhibition is inactive: 7.22%.

For `Cc1cccc(CN2CCN(C(c3ccccc3)c3ccc(Cl)cc3)CC2)c1` (stereo not given), the inhibition was inactive: -7.04%.

Regarding `COC1CCCCC1Nc1ccc(C)c(C)c1` (stereo not given), the inhibition is inactive: -2.83%.

Turning to `OC(C#CCN1CCCC1)(c1ccccc1)c1cccnc1` (stereo not given), the inhibition was inactive: 0.07%.

For `CN=C1c2cc3cc(OC)ccc3n2CCN1C`, the inhibition is inactive: 3.44%.

Regarding `O=C(OCCN1CCCC1)C1(c2ccccc2)CCCC1`, the inhibition is inactive: -8.49%.

Take `COC(=O)c1ccc(NC(=O)C23CCC(C)(C(=O)O2)C3(C)C)cc1` (stereo not given): the inhibition is inactive: -0.66%.

In the case of `CC(C)=CCCC(C)CN1CCC(N2CCC(C(=O)N3CCCC3)CC2)CC1` (stereo not given), the inhibition is inactive: -9.96%.

On to `C[C@]12CC[C@@H]3c4ccc(O)cc4CC[C@H]3[C@@H]1CCC2=O`, for which the inhibition is inactive: 7.19%.

For the compound `CC(NC(=O)c1ccc(OC2CCN(Cc3ccccn3)CC2)cc1)c1ccccc1` (stereo not given), the inhibition was inactive: -13.1%.

Regarding `COc1ccc(C)cc1S(=O)(=O)Nc1ccc(F)cc1`, the inhibition was inactive: 5.9%.

Turning to `CN1CC2CCCC3(C1)C(=O)NC1(CCCCC1)N=C23` (stereo not given), the inhibition is inactive: -6.33%.

With `COc1ccc(-c2cc(C(=O)N3CCOCC3)c3cc(C)ccc3n2)cc1`, the inhibition was inactive: -2.54%.

For the compound `O=C(/C=C/c1ccc2c(c1)OCO2)NCc1ccc(F)cc1`, the inhibition is inactive: -2.57%.

For `Cc1csc(CCc2nc(C)cs2)n1`, the inhibition is inactive: -3.21%.

`O=C(Oc1ccc2c3c(c(=O)oc2c1)CCCC3)c1ccco1`: the inhibition is inactive: 7.31%.

In the case of `COc1ccc(-c2c(C)c3ccc(OCC(C)=O)cc3oc2=O)cc1`, the inhibition was inactive: 6.28%.

Take `C(=C\c1ccc2ccccc2n1)/c1ccccc1`: the inhibition is inactive: -4.7%.

`c1cc(-c2ccncc2)ccn1`: the inhibition is inactive: -6.1%.

For the compound `CCCCOc1cc(C(=O)NCCN(CC)CC)c2ccccc2n1`, the inhibition is inactive: -13.4% and inactive: -7.3%.

As to `COc1cccc(CC2CC(=O)N(c3ccc4c(C)cc(=O)oc4c3)C2=O)c1` (stereo not given), the inhibition is inactive: -1.78%.

Take `CCS(=O)(=O)CCn1c([N+](=O)[O-])cnc1C`: the inhibition was inactive: -9.61%.

Regarding `O=C1CCc2cc(OCCCCc3nnnn3C3CCCCC3)ccc2N1`, the inhibition is inactive: -0.47%.

Turning to `Cc1ccc(C(CC(=O)NCc2ccco2)c2ccc(OC(C)C)cc2)cc1` (stereo not given), the inhibition was inactive: 26.4%.

With `Cc1ccccc1NC(=O)C1c2ccccc2Oc2ccccc21`, the inhibition is inactive: -6.75%.

For the compound `CCOC(=O)c1c(C)oc2c1C(=O)c1ccccc1C2=O`, the inhibition is inactive: -9.93%.

For the compound `O=C(CN1CC[n+]2c(-c3cccs3)csc21)c1ccc(Br)cc1`, the inhibition was inactive: -1.99%.

In the case of `Cc1ccc2c(c1)C(C)(C)[C@]1(C)NC(=O)CCN21`, the inhibition is inactive: 1.05%.

Turning to `CC(=O)OC1c2c(ccc3ccc(=O)oc23)OC(C)(C)C1OC(=O)CC(C)C` (stereo not given), the inhibition was inactive: 2.41%.

For the compound `O=C(CCC(=O)c1cccs1)c1cccs1`, the inhibition was inactive: -7.75%.

Regarding `O=C1c2ccccc2C2(c3ccccc3)NCCN12` (stereo not given), the inhibition is inactive: 0.96%.
